Experimental data: publication PMC8225222
Results are given in words; binding and its absence hold for the method and conditions named. Binding seen in cells or lysates may run through a third protein. Some entries that bind do so weakly or less than the wild type. Where a sequence is shown, tags or fusion partners need not be part of it.

Chains of the proteins cited; added tags and fusions are not shown.
UniProt P40763: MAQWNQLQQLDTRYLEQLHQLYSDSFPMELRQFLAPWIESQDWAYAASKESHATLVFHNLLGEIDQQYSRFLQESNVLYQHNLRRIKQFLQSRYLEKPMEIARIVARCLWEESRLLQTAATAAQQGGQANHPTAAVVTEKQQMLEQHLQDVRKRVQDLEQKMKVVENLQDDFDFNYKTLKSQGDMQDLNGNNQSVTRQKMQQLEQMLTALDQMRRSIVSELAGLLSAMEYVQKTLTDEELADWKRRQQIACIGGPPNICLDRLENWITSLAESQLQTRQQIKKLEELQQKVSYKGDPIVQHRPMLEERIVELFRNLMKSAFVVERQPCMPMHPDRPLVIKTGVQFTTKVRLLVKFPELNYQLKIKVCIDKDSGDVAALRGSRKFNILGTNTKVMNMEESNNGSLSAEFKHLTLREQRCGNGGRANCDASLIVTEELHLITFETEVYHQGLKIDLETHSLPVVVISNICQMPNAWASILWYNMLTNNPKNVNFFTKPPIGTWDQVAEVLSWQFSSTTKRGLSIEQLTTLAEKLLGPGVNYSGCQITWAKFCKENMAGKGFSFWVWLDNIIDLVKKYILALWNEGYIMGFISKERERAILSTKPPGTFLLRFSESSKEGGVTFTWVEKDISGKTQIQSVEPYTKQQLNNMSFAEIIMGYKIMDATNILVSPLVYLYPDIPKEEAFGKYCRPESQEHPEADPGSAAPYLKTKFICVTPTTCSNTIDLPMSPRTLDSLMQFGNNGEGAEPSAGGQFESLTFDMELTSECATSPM

Target: T1, LCMV zinc finger matrix protein Z, C-terminal strep tag (pCAGGs-LCMV-Z-strep) (lymphocytic choriomeningitis virus (LCMV)) (UniProt P18541)
T1 sequence: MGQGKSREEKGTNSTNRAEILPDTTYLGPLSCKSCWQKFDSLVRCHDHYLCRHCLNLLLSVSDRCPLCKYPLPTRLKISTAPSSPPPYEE
Experiment: co-IP

signal transducer and activator of transcription 3 (STAT3) (from UniProt P40763 1-770)
binding: binds
